These are yes or no findings as the source states them, for the method shown.
Tests used:
[1] = target: E. coli DnaK (E. coli Hsp70), wild type (E. coli) (UniProt A1A766); test: ELISA; both purified
[2] = target: E. coli DnaK (E. coli Hsp70), wild type (E. coli) (UniProt A1A766); test: far-Western, overlay or dot blot; both purified

The chains behind the UniProt entries cited, without tags or fusion partners.
UniProt A1A766: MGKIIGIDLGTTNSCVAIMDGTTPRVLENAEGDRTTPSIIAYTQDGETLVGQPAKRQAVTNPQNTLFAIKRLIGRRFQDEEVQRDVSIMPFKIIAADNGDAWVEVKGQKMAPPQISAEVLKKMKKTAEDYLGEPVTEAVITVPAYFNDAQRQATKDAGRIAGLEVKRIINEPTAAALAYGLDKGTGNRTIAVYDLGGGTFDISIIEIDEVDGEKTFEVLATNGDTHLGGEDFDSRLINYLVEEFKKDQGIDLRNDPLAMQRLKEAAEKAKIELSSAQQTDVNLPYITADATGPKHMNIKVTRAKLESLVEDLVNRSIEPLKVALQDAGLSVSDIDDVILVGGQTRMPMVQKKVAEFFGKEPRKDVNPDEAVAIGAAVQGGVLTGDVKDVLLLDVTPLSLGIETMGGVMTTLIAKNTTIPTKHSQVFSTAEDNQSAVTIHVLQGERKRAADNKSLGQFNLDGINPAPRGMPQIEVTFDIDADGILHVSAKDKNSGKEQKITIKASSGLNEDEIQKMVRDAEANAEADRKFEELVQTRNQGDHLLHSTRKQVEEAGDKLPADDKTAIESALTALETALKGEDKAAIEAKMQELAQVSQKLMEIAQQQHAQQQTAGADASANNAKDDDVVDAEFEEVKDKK
UniProt Q8ILC1: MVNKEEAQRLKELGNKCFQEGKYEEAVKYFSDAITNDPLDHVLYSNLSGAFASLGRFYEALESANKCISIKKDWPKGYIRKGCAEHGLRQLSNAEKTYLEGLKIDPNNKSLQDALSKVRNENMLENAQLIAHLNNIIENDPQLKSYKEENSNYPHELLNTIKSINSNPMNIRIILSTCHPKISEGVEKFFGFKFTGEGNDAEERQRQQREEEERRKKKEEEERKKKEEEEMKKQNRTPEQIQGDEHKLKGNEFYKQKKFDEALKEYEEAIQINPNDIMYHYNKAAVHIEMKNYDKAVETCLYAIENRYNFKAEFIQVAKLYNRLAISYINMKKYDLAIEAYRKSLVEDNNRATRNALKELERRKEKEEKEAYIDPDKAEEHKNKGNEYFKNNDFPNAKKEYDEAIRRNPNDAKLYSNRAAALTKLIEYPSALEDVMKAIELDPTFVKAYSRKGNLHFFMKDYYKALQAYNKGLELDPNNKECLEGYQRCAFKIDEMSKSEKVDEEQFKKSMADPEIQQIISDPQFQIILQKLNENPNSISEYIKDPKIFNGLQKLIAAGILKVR

For “Plasmodium falciparum Hsp70-Hsp90 organising protein (PfHop) (from UniProt Q8ILC1 1-564)”, the binding [1] was “no binding (tested: 0–0.5 μg PfHop)” and the binding [2] was “no binding (tested: 4 μg of purified PfHop)”.
